From patent publication US20060142189A1
Results are given in words; binding and its absence hold for the method and conditions named. Some entries that bind do so weakly or less than the wild type.

Chains of the proteins cited; added tags and fusions are not shown. Lines headed by an entry give the natural chain unless they say otherwise; changes in a name come on top. A line that says so, or that is headed by a name, gives the form on record, which may keep a tag or linker.
UniProt Q05695: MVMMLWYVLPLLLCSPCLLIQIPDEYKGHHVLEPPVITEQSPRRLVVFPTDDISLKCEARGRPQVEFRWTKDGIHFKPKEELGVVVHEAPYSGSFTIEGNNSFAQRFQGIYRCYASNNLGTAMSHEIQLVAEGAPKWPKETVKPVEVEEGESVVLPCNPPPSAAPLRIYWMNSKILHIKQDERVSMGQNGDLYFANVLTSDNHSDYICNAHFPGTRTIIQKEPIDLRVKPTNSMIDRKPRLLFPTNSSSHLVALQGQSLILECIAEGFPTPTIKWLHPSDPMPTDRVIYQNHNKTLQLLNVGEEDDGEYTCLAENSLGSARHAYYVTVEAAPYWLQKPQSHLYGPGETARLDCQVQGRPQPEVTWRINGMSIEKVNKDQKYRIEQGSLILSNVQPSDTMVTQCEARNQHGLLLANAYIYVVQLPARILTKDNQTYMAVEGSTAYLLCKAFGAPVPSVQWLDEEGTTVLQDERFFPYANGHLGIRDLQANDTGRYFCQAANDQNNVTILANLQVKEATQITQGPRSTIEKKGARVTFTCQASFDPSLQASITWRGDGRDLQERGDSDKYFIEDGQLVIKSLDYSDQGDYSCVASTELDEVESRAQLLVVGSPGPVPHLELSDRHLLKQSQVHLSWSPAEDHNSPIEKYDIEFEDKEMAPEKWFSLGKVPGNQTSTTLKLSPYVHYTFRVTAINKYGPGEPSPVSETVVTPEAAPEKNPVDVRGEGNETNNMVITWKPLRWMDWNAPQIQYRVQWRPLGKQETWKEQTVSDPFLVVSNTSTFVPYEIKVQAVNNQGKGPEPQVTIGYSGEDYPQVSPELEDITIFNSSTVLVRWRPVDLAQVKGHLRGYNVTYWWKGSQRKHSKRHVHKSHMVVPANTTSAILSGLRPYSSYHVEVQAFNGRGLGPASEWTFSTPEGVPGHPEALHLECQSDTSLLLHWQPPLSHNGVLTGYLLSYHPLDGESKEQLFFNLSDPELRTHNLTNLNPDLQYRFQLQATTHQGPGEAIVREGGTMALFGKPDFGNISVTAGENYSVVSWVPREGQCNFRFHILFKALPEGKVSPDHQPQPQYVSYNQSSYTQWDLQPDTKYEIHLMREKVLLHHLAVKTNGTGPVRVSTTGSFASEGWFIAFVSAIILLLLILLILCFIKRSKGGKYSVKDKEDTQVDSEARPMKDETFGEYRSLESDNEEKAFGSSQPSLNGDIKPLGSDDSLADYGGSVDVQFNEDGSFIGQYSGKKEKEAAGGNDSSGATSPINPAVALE
ankyrinB (endogenous in human kidney 293 cells) (Q01484, form named): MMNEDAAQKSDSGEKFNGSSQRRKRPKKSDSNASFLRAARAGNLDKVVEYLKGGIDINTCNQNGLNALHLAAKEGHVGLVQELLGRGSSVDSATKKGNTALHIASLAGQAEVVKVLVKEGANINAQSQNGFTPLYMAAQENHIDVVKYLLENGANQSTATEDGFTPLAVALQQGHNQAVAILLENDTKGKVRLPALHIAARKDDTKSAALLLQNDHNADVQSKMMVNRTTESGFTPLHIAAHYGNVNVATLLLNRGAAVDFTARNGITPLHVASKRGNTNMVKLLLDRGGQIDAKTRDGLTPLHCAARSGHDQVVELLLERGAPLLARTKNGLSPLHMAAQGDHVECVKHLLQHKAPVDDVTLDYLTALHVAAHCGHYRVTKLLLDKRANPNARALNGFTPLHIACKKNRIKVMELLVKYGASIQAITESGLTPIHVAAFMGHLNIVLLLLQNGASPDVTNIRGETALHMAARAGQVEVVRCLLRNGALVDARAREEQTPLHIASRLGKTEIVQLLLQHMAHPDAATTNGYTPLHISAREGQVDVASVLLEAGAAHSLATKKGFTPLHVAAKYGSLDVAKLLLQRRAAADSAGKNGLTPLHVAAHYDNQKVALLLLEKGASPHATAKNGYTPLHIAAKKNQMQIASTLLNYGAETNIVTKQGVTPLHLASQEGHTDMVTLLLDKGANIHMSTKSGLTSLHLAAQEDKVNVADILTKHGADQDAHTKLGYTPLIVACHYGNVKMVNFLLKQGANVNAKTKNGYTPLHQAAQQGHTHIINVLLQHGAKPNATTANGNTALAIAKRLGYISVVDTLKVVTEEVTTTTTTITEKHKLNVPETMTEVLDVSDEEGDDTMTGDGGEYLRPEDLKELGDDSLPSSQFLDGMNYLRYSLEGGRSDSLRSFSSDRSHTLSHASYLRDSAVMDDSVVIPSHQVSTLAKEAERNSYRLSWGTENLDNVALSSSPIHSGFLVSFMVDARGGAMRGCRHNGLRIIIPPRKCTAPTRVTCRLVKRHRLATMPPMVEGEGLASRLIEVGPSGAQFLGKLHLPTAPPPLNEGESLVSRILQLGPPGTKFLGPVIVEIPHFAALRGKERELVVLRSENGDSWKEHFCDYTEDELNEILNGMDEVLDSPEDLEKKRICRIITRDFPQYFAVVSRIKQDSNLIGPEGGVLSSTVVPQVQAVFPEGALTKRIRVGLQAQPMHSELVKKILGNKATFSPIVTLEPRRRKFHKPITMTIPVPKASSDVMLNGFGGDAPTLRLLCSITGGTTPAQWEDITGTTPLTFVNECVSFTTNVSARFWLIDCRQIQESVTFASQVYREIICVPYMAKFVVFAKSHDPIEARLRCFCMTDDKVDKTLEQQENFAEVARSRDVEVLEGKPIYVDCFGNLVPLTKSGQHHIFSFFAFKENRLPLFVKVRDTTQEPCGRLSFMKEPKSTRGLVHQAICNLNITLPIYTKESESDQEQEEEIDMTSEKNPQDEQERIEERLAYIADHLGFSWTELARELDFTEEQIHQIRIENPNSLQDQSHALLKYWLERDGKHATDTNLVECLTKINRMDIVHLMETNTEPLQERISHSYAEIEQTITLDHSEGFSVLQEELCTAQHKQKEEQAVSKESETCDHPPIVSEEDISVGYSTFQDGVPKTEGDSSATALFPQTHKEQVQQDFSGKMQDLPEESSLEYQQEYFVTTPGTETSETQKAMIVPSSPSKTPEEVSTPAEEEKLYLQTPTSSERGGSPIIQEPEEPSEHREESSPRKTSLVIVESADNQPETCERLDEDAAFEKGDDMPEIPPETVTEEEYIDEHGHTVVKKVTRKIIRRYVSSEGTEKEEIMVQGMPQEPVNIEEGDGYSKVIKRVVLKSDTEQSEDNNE

Target: myc-L1-CAM (myc-tagged rat L1-CAM variant expressed from pMyc-L1-CAM) (rat (variant of rat L1-CAM)) (UniProt Q05695)
Assay: membrane recruitment / co-localization by confocal immunofluorescence in transfected 293 cells

ankyrinB (endogenous in human kidney 293 cells) (from UniProt Q01484 1-1872)
binding: binds
